No constants are given. Whether binding was seen depends on the method and setting. In cells and extracts the contact can be indirect. Some binding calls cover weakened binding; strength is not graded here. Blank lines part the entries; values can stand above or below the substance they belong to.
Columns and labels:
Experiment in all cases: FRET or BRET; homomerization FRET by confocal microscopy in living HEK293 cells co-expressing C-terminally CFP- and YFP-labelled copies of the same Orai1 variant; room temperature, 18-24 h after transfection
[1] = molecular target: Orai1-V181A-CFP / Orai1-V181A-YFP (C-terminally labelled) (human) (UniProt Q96D31)
[2] = molecular target: Orai1-V181E-CFP / Orai1-V181E-YFP (C-terminally labelled) (human) (UniProt Q96D31)
[3] = molecular target: Orai1-V181K-CFP / Orai1-V181K-YFP (C-terminally labelled) (human) (UniProt Q96D31)
[4] = molecular target: Orai1-V181R-CFP / Orai1-V181R-YFP (C-terminally labelled) (human) (UniProt Q96D31)
[5] = molecular target: wt Orai1-CFP / wt Orai1-YFP (human Orai1, C-terminally CFP- or YFP-labelled) (human) (UniProt Q96D31)

Amino acid sequences for entries named in this document (tags omitted). A change or cut given only in a name is not applied to a line headed by its entry.
UniProt Q96D31: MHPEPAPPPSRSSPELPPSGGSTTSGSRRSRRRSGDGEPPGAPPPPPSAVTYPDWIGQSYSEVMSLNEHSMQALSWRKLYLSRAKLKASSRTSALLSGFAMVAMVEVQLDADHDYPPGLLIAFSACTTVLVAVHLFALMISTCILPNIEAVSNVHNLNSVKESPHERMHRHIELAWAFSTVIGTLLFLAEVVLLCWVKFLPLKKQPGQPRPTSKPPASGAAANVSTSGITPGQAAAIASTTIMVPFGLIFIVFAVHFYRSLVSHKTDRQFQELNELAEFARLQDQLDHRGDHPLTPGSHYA

Substance: Orai1-V181K-CFP / Orai1-V181K-YFP (C-terminally labelled) (from UniProt Q96D31-1 1-301)
binding [3]: binds

Substance: wt Orai1-CFP / wt Orai1-YFP (human Orai1, C-terminally CFP- or YFP-labelled) (from UniProt Q96D31-1 1-301)
binding [5]: binds

The next lines start with the values.

binding [1]: binds
Substance: Orai1-V181A-CFP / Orai1-V181A-YFP (C-terminally labelled) (from UniProt Q96D31-1 1-301)

binding [2]: binds
Substance: Orai1-V181E-CFP / Orai1-V181E-YFP (C-terminally labelled) (from UniProt Q96D31-1 1-301)

binding [4]: binds
Substance: Orai1-V181R-CFP / Orai1-V181R-YFP (C-terminally labelled) (from UniProt Q96D31-1 1-301)

Reference: paper PMC11569263
